Measured values published in PubChem BioAssay AID540276 (National Center for Advancing Translational Sciences (NCATS), 2011).
The campaign covered roughly 300,000 compounds. About 5,400 (1.8%) were called active. The shares of active, inactive and inconclusive entries below differ from those in the screen. Calls follow the shape of the full dose curve; tested in HEK293 cells. Where the call is inconclusive, the potency comes from a doubtful curve fit.

experiment: qHTS for inhibitors of binding or entry into cells for Marburg Virus; conditions: Marburg virus pseudotyped entry inhibition, cell reporter; activity change, negative = inhibition: at 37.8 µM (top of the series) unless noted
% is scaled to controls: 0 for no effect and ±100 for the full control effect; potency is read from the fitted curve at half-maximal effect.

Compound | activity change, negative = inhibition | Potency
COc1ccc(N2CC(C(=O)N[C@@H](C)C(=O)NC3CCCCC3)CC2=O)cc1 (stereo not given in full) | inactive: 0.0056% [at 46.1 µM] | 
COC(=O)c1ccc(C)c(NC(=O)c2ccc(Cn3cc([N+](=O)[O-])cn3)o2)c1 |  | inconclusive: 1 µM [inhibitor, partial curve, poor fit]
O=C(Nc1cccc(O)c1)c1cccc(S(=O)(=O)Nc2cccc(O)c2)c1 | inactive: 11.9% [at 46.1 µM] | 
OCC1(CC2CCCCO2)CCN(C/C=C/c2ccccc2)CC1 (stereo not given) |  | inconclusive: 25.1 µM [inhibitor, single point]
CCn1cc2nc(SCC(=O)Nc3cc(OC)ccc3OC)n(Cc3ccc(Cl)cc3)c(=O)c2n1 |  | active: 12.6 µM
CSCCC(NC(=O)c1ccccc1Cl)C(=O)N1CCN(C(c2ccccc2)c2ccccc2)CC1 (stereo not given) |  | inconclusive: 20 µM [inhibitor, single point]
CCCCc1nc(N2CCNCC2)c(C#N)c2c1CSC(C)(C)C2 |  | inconclusive: 35.5 µM [inhibitor, single point]
O=C(c1cc(F)c(F)cc1Cl)N1CCN(c2ccc([N+](=O)[O-])c3ncccc23)CC1 |  | inconclusive: 35.5 µM [inhibitor, single point]
COc1cc2c(Cc3ccccc3)cncc2cc1O | inactive: 12.5% | 
COc1cc(C2c3c(-c4cc(C)ccc4O)n[nH]c3C(=O)N2Cc2cccnc2)cc(OC)c1OC (stereo not given) | inactive: 1.21% [at 46.1 µM] | 
N#CCCN(C(=O)COC(=O)c1ccc(CNS(=O)(=O)c2ccc(F)c(Cl)c2)cc1)c1ccc(F)cc1 |  | inconclusive: 35.5 µM [inhibitor, single point]
C/C=C/COC(=O)c1[nH]c2c(c1C)C(=O)CC(c1ccco1)C2 (stereo not given) |  | inconclusive: 2.91 µM [inhibitor, partial curve, poor fit]
CCCCN(C(=O)CC1CCCC1)c1c(N)n(CC(C)C)c(=O)[nH]c1=O |  | inconclusive: 6.31 µM [inhibitor, single point]
CCCCOc1ccc(N2C(=O)CC(N(CCc3ccccc3)C(=O)/C=C/C(=O)O)C2=O)cc1 (stereo not given) |  | inconclusive: 0.251 µM [inhibitor, partial curve, poor fit]
CCC(C)c1ccc(O)c(NC(=S)NC(=O)c2cccnc2)c1 (stereo not given) |  | inconclusive: 35.5 µM [inhibitor, single point]
COc1ccc(S(=O)(=O)Nc2ccccc2-c2nc3ccccc3[nH]c2=O)cc1 |  | inconclusive: 7.94 µM [inhibitor, partial curve, poor fit]
O=C(CN1C(=O)C2C3C=CC(C3)C2C1=O)Nc1cccc(S(=O)(=O)N2CCCC2)c1 (stereo not given) | inactive: 11.4% | 
Cc1ccc(C)c(NS(=O)(=O)c2cc(C(=O)Nc3ccccc3-c3ccccc3)ccc2C)c1 |  | inconclusive: 9.2 µM [inhibitor, partial curve, poor fit]
NCCc1c[nH]c2ccc(C(N)=O)cc12 |  | inconclusive: 3.66 µM [inhibitor, partial curve, poor fit]
O=C(CN(Cc1ccco1)C(=O)CCC(=O)Nc1ccccn1)NCCc1ccccc1 |  | inconclusive: 6.31 µM [activator, single point]
Cc1ccc(C)c(N2CCN(C(=O)c3ccc4nsnc4c3)CC2)c1 |  | inconclusive: 11.2 µM [inhibitor, partial curve, poor fit]
CN(Cc1ccc(Cl)cc1)C(=O)c1ccc2ccccc2n1 |  | inconclusive: 8.91 µM [inhibitor, partial curve, poor fit]

Compound | activity change, negative = inhibition | Potency
CCOc1ccc(C(C(=O)NCCOC)N(CCOC)C(=O)CCC(=O)Nc2ccccn2)cc1 (stereo not given) |  | inconclusive: 0.562 µM [inhibitor, full curve, poor fit]
CCCn1c(=O)[nH]c(=O)c2c(C(F)(F)F)cc(-c3ccc(C)cc3)nc21 | inactive: 4.39% [at 46.1 µM] | 
O=C(Nc1nccs1)c1ccc(S(=O)(=O)NCC2CCCCC2)cc1 |  | inconclusive: 20.6 µM [inhibitor, single point]
CCOC(=S)NC(=O)c1sc2ccccc2c1Cl | inactive: 26.1% | 
N#CCCn1nc(-c2ccc([N+](=O)[O-])cc2)cc1Nc1ccccc1NC(=O)C(F)(F)F |  | inconclusive: 14.1 µM [inhibitor, single point]
CC(C)c1c(C(=O)N/N=C/c2cccc(OCc3ccccc3)c2)nnn1-c1nonc1N |  | inconclusive: 22.4 µM [inhibitor, single point]
CC(=O)Nc1ccc(NC(=O)C(NC(=O)C2CCC(C)CC2)C(C)C)cc1 (stereo not given) |  | inconclusive: 31.6 µM [activator, single point]
CSC1(SC2=NCCN2)SC2(NCCN2)S1 |  | active: 10 µM
COc1cccc(OC)c1OCCCN1CCC(Cc2ccccc2)CC1 |  | active: 11.2 µM
O=C(NNC(=S)Nc1cccc(Cl)c1)c1ccccc1 |  | inconclusive: 0.708 µM [activator, full curve, poor fit]
O=C(OCC(=O)N1CCOCC1)c1ccc(F)cc1Cl |  | inconclusive: 11.2 µM [activator, partial curve]
Cc1cccc(-c2nnc(SCC(=O)C(C)(C)C)n2C)c1 | inactive: -0.33% [at 46.1 µM] | 
C=CCN1C(=O)c2ccc(C(=O)N(C)Cc3ccc(C)o3)cc2C1=O |  | inconclusive: 3.55 µM [activator, single point]
N#Cc1c(N)nc2c3c(sc(=N)c2c1N)NC(=O)CC3c1ccccc1Cl (stereo not given) |  | inconclusive: 15.8 µM [inhibitor, partial curve, poor fit]
COc1ccccc1NC(=O)c1sc2nc(-c3ccco3)ccc2c1N |  | inconclusive: 35.5 µM [activator, partial curve, poor fit]
Cc1ccc(S(=O)(=O)N(CC(O)CN2CCCCC2)c2cccc([N+](=O)[O-])c2)cc1 (stereo not given) |  | inconclusive: 35.5 µM [inhibitor, single point]
Cc1cc(C)nc(SC2=CS(=O)(=O)c3ccccc32)n1 |  | active: 4.47 µM
CC(C)c1cc(C(=O)NCc2ccc(F)cc2)no1 |  | inconclusive: 6.31 µM [activator, partial curve]
CCCCn1c(SCC(=O)Nc2cccc(OC)c2)nc2ccc(N3CCOCC3)cc2c1=O |  | inconclusive: 16.4 µM [inhibitor, single point]
CCc1ccccc1NC(=O)c1nn(-c2ccc(C)cc2)c(=O)c2c1c1ccccc1n2C | inactive: -0.385% [at 46.1 µM] | 
CCOc1ncccc1C(=O)OCC(=O)N(CC)c1ccccc1 |  | inconclusive: 17.8 µM [activator, partial curve, poor fit]
Cc1nc2ccccc2c(=O)n1NC(=O)c1ccc([N+](=O)[O-])cc1 |  | inconclusive: 35.5 µM [activator, single point]

Compound | activity change, negative = inhibition | Potency
CCOCCCNC(=O)C(NC(=O)C1CCC(C)CC1)C(C)C (stereo not given) | inactive: 1.06% [at 46.1 µM] | 
CN(C1CCCCC1)S(=O)(=O)c1ccc2c(c1)c(=O)c(C(=O)N1CCN(c3ccc(F)cc3)CC1)cn2C | inactive: 16.2% [at 46.1 µM] | 
Fc1ccc(N2CCN(c3ncnc4c3nnn4Cc3ccccc3Cl)CC2)cc1 | inactive: -17.5% | 
CCOC(=O)N1CCN(C(=S)NC(=O)C23CC4CC(CC(C4)C2)C3)CC1 |  | inconclusive: 3.55 µM [inhibitor, partial curve, poor fit]
Cc1cc(C)n(-c2nc3ccccc3c(=O)n2OCc2ccc(Cl)cc2)n1 | inactive: -16.4% | 
CCP(=O)(c1ccccc1)C(C)(C)O (stereo not given) |  | inconclusive: 31.6 µM [activator, single point]
Cc1ccc(C(=O)c2cn(Cc3cc(C)ccc3C)c3nc(C)ccc3c2=O)cc1 |  | active: 7.08 µM
COCCN1Cc2cccc(C(=O)NCC3CCN(CC(C)C)C3)c2C1=O (stereo not given) | inactive: -0.59% [at 46.1 µM] | 
Cc1cccc2nc(CSc3nc4ccccc4o3)cn12 |  | inconclusive: 0.891 µM [activator, partial curve, poor fit]
CCn1c(/N=C/c2ccccc2O)nc2ccccc21 | inactive: -26% | 
COc1ccc(C(=O)/C(=C\c2ccco2)N2C=CC=CC2=C(C#N)C#N)cc1 |  | inconclusive: 2.82 µM [inhibitor, partial curve, poor fit]
O=C1COc2ccc(C(=O)CSc3nnc(Cc4cccs4)n3-c3ccc(Cl)cc3)cc2N1 |  | inconclusive: 1.64 µM [inhibitor, partial curve, poor fit]
Cc1c(Cl)cccc1NC(=O)Nc1nnc(N(C)C2CCCCC2)s1 | inconclusive: 20.1% [activator] [at 46.1 µM] | 
Cc1cc(C)n2nc(-c3ccccc3)c(-c3ccccc3)c2n1 |  | inconclusive: 6.31 µM [inhibitor, single point]
O=C1C2Cc3c([nH]c4ccccc34)C(c3ccccc3)N2C(=O)C2Cc3c([nH]c4ccccc34)C(c3ccccc3)N12 (stereo not given) |  | inconclusive: 14.6 µM [inhibitor, partial curve, poor fit]
CCOC(=O)N1CCN(Cc2nc3cc(NC(=O)c4ccc(F)cc4)ccc3n2C(C)C)CC1 |  | inconclusive: 0.891 µM [inhibitor, full curve, poor fit]
O=C(CNC(c1ccccc1)c1ccccc1)Nc1ccccc1-c1ccccc1 |  | inconclusive: 20 µM [inhibitor, partial curve, poor fit]
O=C(c1ccco1)N1CCN(C(=O)c2ccc(-c3cccc(C(F)(F)F)c3)o2)CC1 |  | inconclusive: 14.1 µM [inhibitor, single point]
O=C(O/N=C/c1ccc(Cl)cc1)C1CCCCC1 |  | inconclusive: 5.62 µM [inhibitor, single point]
Cc1cnn(-c2cc(N/N=C/c3ccccc3Cl)ncn2)c1 | inactive: 9.47% | 
Cn1c(=O)c2cc(S(=O)(=O)NCCC(=O)NCC3CCCO3)ccc2n(C)c1=O (stereo not given) |  | inconclusive: 20.6 µM [activator, partial curve, poor fit]

Shown in CSV form: entries from further up
Compound,"activity change, negative = inhibition",Potency
CCOCCCNC(=O)C(NC(=O)C1CCC(C)CC1)C(C)C (stereo not given),inactive: 1.06% [at 46.1 µM],
Fc1ccc(N2CCN(c3ncnc4c3nnn4Cc3ccccc3Cl)CC2)cc1,inactive: -17.5%,
CCOC(=O)N1CCN(C(=S)NC(=O)C23CC4CC(CC(C4)C2)C3)CC1,,"inconclusive: 3.55 µM [inhibitor, partial curve, poor fit]"
Cc1cc(C)n(-c2nc3ccccc3c(=O)n2OCc2ccc(Cl)cc2)n1,inactive: -16.4%,
CCP(=O)(c1ccccc1)C(C)(C)O (stereo not given),,"inconclusive: 31.6 µM [activator, single point]"
Cc1ccc(C(=O)c2cn(Cc3cc(C)ccc3C)c3nc(C)ccc3c2=O)cc1,,active: 7.08 µM
Cc1cccc2nc(CSc3nc4ccccc4o3)cn12,,"inconclusive: 0.891 µM [activator, partial curve, poor fit]"
COc1ccc(C(=O)/C(=C\c2ccco2)N2C=CC=CC2=C(C#N)C#N)cc1,,"inconclusive: 2.82 µM [inhibitor, partial curve, poor fit]"
O=C1COc2ccc(C(=O)CSc3nnc(Cc4cccs4)n3-c3ccc(Cl)cc3)cc2N1,,"inconclusive: 1.64 µM [inhibitor, partial curve, poor fit]"
Cc1c(Cl)cccc1NC(=O)Nc1nnc(N(C)C2CCCCC2)s1,inconclusive: 20.1% [activator] [at 46.1 µM],
Cc1cc(C)n2nc(-c3ccccc3)c(-c3ccccc3)c2n1,,"inconclusive: 6.31 µM [inhibitor, single point]"
CCOC(=O)N1CCN(Cc2nc3cc(NC(=O)c4ccc(F)cc4)ccc3n2C(C)C)CC1,,"inconclusive: 0.891 µM [inhibitor, full curve, poor fit]"
O=C(CNC(c1ccccc1)c1ccccc1)Nc1ccccc1-c1ccccc1,,"inconclusive: 20 µM [inhibitor, partial curve, poor fit]"
O=C(O/N=C/c1ccc(Cl)cc1)C1CCCCC1,,"inconclusive: 5.62 µM [inhibitor, single point]"
